Test results as given in the supplement of paper PMC6411743.
± gives the standard deviation of the averaged measurements. The list shows a part of the results.

Biological target: T1, PHB (UniProt P35232)
T1 sequence (whole entry): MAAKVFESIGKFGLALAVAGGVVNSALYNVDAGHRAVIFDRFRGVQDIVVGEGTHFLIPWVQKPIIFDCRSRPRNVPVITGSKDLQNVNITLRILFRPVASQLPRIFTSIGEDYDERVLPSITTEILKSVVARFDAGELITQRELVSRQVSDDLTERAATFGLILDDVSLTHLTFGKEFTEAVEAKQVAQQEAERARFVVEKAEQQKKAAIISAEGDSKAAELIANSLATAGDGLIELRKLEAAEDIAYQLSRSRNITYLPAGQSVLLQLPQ
Test: NP40-soluble protein abundance relative to vehicle (solubility fold change) (ratio); higher = more soluble protein in presence of GTP
Description: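 Solubility proteome profiling in Jurkat crude lysate. Lysate was treated with Mg-GTP (0.1-10 mM) for 10 min at room temperature and 3 min at 37 °C, then solubilised with 0.8% NP40 and benzonase, followed by ultracentrifugation. Proteins were quantified by TMT10 LC-MS/MS; the value is the NP40-soluble abundance relative to the NP40-processed vehicle, from 3 independent experiments.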

Nc1nc2c(ncn2[C@@H]2O[C@H](COP(=O)(O)OP(=O)(O)OP(=O)(O)O)[C@@H](O)[C@H]2O)c(=O)[nH]1 [guanosine triphosphate]
NP40-soluble protein abundance (concentration: 0.1mM): 1.01 ± 0.038 | NP40-soluble protein abundance (concentration: 0.5mM): 1.04 ± 0.085 | NP40-soluble protein abundance (concentration: 1mM): 0.966 ± 0.073 | NP40-soluble protein abundance (concentration: 2mM): 0.98 ± 0.13 | NP40-soluble protein abundance (concentration: 4mM): 0.995 ± 0.12 | NP40-soluble protein abundance (concentration: 6mM): 0.942 ± 0.11 | NP40-soluble protein abundance (concentration: 8mM): 0.974 ± 0.098 | NP40-soluble protein abundance (concentration: 10mM): 0.932 ± 0.12
